# Results are given in words; binding and its absence hold for the method and conditions named. Binding seen in cells or lysates may run through a third protein. Some binding calls cover weakened binding; strength is not graded here.
# The chains behind the UniProt entries cited, without tags or fusion partners.
# UniProt Q99081: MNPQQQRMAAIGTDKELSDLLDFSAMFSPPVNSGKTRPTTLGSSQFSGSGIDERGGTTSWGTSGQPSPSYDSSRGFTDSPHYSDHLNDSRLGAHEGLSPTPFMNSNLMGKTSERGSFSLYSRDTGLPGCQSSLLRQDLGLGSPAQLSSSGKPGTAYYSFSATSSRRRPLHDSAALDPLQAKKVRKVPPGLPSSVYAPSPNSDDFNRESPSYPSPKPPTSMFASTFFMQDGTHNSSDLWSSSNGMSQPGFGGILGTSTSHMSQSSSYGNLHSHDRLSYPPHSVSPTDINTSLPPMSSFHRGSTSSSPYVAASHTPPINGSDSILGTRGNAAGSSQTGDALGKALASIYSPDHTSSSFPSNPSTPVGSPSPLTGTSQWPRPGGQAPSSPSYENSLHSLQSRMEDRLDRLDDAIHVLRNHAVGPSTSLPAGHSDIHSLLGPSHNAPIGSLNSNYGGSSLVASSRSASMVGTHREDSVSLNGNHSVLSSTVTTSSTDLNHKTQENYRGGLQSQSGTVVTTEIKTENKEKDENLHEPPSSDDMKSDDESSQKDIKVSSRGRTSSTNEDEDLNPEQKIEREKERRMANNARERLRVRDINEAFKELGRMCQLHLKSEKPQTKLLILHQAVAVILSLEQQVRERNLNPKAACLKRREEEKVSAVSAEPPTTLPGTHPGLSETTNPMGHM
# UniProt Q13547: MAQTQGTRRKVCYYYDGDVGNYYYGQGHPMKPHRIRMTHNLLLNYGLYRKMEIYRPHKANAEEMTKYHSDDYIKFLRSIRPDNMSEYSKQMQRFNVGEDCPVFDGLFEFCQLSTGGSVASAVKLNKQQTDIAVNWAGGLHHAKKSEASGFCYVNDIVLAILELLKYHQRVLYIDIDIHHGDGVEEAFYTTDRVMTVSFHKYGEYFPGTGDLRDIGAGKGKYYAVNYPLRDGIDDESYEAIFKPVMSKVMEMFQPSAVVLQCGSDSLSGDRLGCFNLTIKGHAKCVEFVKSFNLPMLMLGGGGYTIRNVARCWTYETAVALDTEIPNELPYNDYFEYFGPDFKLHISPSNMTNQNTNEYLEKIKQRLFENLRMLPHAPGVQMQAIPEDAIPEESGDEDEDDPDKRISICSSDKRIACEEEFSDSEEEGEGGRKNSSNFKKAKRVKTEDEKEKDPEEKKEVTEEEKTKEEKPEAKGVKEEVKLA
# Target: TCF-12 (human (endogenous in GBC-SD)) (UniProt Q99081)
# Test: co-IP; proteins from GBC-SD cells; TCF-12 antibody against non-specific IgG control; mRIPA buffer (50 mM Tris pH 7.5, 150 mM NaCl, 5 mM EDTA, 0.1% Triton-X100, 0.1% Nonidet P-40), Protein-A agarose beads, 4°C; western blot
substance,measurement,value
HDAC1 (from UniProt Q13547 1-482),binding,binds
